Drawing on paper doi:10.1101/2023.06.15.543498, this text covers binding for one substance.

Sequences of proteins named here, by UniProt entry; tags and fusion partners are left off. A change or cut given only in a name is not applied to a line headed by its entry.
UniProt P0A7L0: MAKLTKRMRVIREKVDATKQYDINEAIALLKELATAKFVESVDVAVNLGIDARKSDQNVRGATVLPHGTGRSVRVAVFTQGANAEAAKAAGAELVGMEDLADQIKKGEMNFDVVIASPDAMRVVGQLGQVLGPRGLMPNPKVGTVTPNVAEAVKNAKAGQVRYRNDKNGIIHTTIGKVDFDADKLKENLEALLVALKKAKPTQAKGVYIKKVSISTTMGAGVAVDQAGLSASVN
UniProt P0A9U3: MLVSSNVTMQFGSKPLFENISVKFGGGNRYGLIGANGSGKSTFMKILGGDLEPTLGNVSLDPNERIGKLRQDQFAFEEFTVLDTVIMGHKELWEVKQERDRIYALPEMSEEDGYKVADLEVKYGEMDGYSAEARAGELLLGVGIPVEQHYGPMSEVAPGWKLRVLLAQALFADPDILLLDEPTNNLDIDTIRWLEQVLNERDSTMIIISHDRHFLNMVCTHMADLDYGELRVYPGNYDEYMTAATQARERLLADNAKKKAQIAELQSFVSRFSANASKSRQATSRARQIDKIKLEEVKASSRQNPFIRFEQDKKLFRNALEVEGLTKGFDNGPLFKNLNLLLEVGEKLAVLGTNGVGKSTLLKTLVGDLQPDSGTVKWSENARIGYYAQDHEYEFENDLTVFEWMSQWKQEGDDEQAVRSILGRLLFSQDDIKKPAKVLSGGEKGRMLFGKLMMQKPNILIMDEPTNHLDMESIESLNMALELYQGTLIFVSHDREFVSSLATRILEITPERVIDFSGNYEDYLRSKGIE

Read-outs that look alike come from different tables or passages of the source. Results are given in words; binding and its absence hold for the method and conditions named. Binding can be weak; no strength is given.

For test [1], the target named is ribosomal protein uL1 (E. coli (endogenous in strain MRE600)) (UniProt P0A7L0). The test can be described thus: cryo-EM structure.
Test [2] has the same target. The test is described as follows: cryo-EM structure. The source holds these as a separate data set.

Take “EQ2-YbiT (hydrolysis-deficient EQ2 mutant of E. coli YbiT) (from UniProt P0A9U3) (enzyme)”: the binding entry in test [1] and in test [2] was “binds” in each case.
